Experimental data: PubChem BioAssay AID1508597 (Cure First, 2020)

Purpose: 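Knock-downs altering ovarian cancer cell survival with or without PARP inhibitor rucaparib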 (primary screen)
Cells: human ovarian carcinoma lines grown from tumours: OCI-P5x (papillary serous) and OCI-C5x (clear cell)
Knock-down reagent: siRNA pool against human genes, 1.25 pmol siRNA per well
Timing: 72 h or 96 h, depending on the cell culture
Treatment: rucaparib 20 µM (about IC30) or vehicle, present until read-out
Measured: 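ATP luminescence measured at 72 or 96 h according to the culture, then normalised and expressed as percent viability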
Reading the numbers: viability, normalised: higher = more viable cells remaining
Active means: 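Active when normalised viability falls below 80 percent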
Meaning of the calls: active = viability under 80%; inactive = viability 80% or more
In all, the deposit lists about 2,100 reagents; shown is an unselected part. 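Calls flag viability under 80% in either arm, not effects specific to rucaparib; the reference for percent is not stated.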 Some reagents were tested in more than one well and are listed for each. Reagent sequences are not shown. Not given: the 100% reference.

Gene	rucaparib or vehicle	cell line	technical replicate	viability, normalised (%)	outcome
FANCB (FA complementation group B)	Rucaparib	OCI-C5x (clear cell)	1	69.3	active
FANCB (FA complementation group B)	Rucaparib	OCI-C5x (clear cell)	2	68.8	active
FANCB (FA complementation group B)	Rucaparib	OCI-C5x (clear cell)	3	53.8	active
FANCB (FA complementation group B)	Rucaparib	OCI-P5x (serous)	1	85.1	inactive
FANCB (FA complementation group B)	Rucaparib	OCI-P5x (serous)	2	95.6	inactive
FANCB (FA complementation group B)	Rucaparib	OCI-P5x (serous)	3	74.4	active
FANCB (FA complementation group B)	Vehicle	OCI-C5x (clear cell)	1	47.1	active
FANCB (FA complementation group B)	Vehicle	OCI-C5x (clear cell)	2	55.2	active
FANCB (FA complementation group B)	Vehicle	OCI-C5x (clear cell)	3	59.1	active
FANCB (FA complementation group B)	Vehicle	OCI-P5x (serous)	1	76.2	active
FANCB (FA complementation group B)	Vehicle	OCI-P5x (serous)	2	76.8	active
FANCB (FA complementation group B)	Vehicle	OCI-P5x (serous)	3	75.6	active
AURKC (aurora kinase C)	Rucaparib	OCI-C5x (clear cell)	1	70.6	active
AURKC (aurora kinase C)	Rucaparib	OCI-C5x (clear cell)	1	66.5	active
AURKC (aurora kinase C)	Rucaparib	OCI-C5x (clear cell)	2	57.7	active
AURKC (aurora kinase C)	Rucaparib	OCI-C5x (clear cell)	2	44.5	active
AURKC (aurora kinase C)	Rucaparib	OCI-C5x (clear cell)	3	87.8	inactive
AURKC (aurora kinase C)	Rucaparib	OCI-C5x (clear cell)	3	43.7	active
AURKC (aurora kinase C)	Rucaparib	OCI-P5x (serous)	1	95.7	inactive
AURKC (aurora kinase C)	Rucaparib	OCI-P5x (serous)	1	58	active
AURKC (aurora kinase C)	Rucaparib	OCI-P5x (serous)	2	76.2	active
AURKC (aurora kinase C)	Rucaparib	OCI-P5x (serous)	2	57.8	active
AURKC (aurora kinase C)	Rucaparib	OCI-P5x (serous)	3	69.7	active
AURKC (aurora kinase C)	Rucaparib	OCI-P5x (serous)	3	88.2	inactive
AURKC (aurora kinase C)	Vehicle	OCI-C5x (clear cell)	1	39.2	active
AURKC (aurora kinase C)	Vehicle	OCI-C5x (clear cell)	1	61	active
AURKC (aurora kinase C)	Vehicle	OCI-C5x (clear cell)	2	72.9	active
AURKC (aurora kinase C)	Vehicle	OCI-C5x (clear cell)	2	32.6	active
AURKC (aurora kinase C)	Vehicle	OCI-C5x (clear cell)	3	67	active
AURKC (aurora kinase C)	Vehicle	OCI-C5x (clear cell)	3	53.5	active
AURKC (aurora kinase C)	Vehicle	OCI-P5x (serous)	1	79.6	active
AURKC (aurora kinase C)	Vehicle	OCI-P5x (serous)	1	51.4	active
AURKC (aurora kinase C)	Vehicle	OCI-P5x (serous)	2	76.1	active
AURKC (aurora kinase C)	Vehicle	OCI-P5x (serous)	2	56.7	active
AURKC (aurora kinase C)	Vehicle	OCI-P5x (serous)	3	63.1	active
AURKC (aurora kinase C)	Vehicle	OCI-P5x (serous)	3	53.9	active
ERN1 (endoplasmic reticulum to nucleus signaling 1)	Rucaparib	OCI-C5x (clear cell)	1	47.5	active
ERN1 (endoplasmic reticulum to nucleus signaling 1)	Rucaparib	OCI-C5x (clear cell)	2	37.8	active
ERN1 (endoplasmic reticulum to nucleus signaling 1)	Rucaparib	OCI-C5x (clear cell)	3	44.8	active
ERN1 (endoplasmic reticulum to nucleus signaling 1)	Rucaparib	OCI-P5x (serous)	1	65.4	active
ERN1 (endoplasmic reticulum to nucleus signaling 1)	Rucaparib	OCI-P5x (serous)	2	63.4	active
ERN1 (endoplasmic reticulum to nucleus signaling 1)	Rucaparib	OCI-P5x (serous)	3	67	active
ERN1 (endoplasmic reticulum to nucleus signaling 1)	Vehicle	OCI-C5x (clear cell)	1	62.4	active
ERN1 (endoplasmic reticulum to nucleus signaling 1)	Vehicle	OCI-C5x (clear cell)	2	65.2	active
ERN1 (endoplasmic reticulum to nucleus signaling 1)	Vehicle	OCI-C5x (clear cell)	3	52.6	active
ERN1 (endoplasmic reticulum to nucleus signaling 1)	Vehicle	OCI-P5x (serous)	1	68.2	active
ERN1 (endoplasmic reticulum to nucleus signaling 1)	Vehicle	OCI-P5x (serous)	2	54.1	active
ERN1 (endoplasmic reticulum to nucleus signaling 1)	Vehicle	OCI-P5x (serous)	3	79.3	active
